Results: article PMC12445521
Results are given in words; binding and its absence hold for the method and conditions named. In cells and extracts the contact can be indirect. Here binding means that the protein was enriched with, or labelled near, the bait; the list need not be complete.

How the values were obtained:
[1] = molecular target: GFP-tagged PEDV M protein (porcine epidemic diarrhea virus (PEDV), strain AH2012/12); test: affinity purification with mass spectrometry; IPEC-J2 cells transfected with C-terminally GFP-tagged structural proteins (pCDNA3.1) or GFP vector; immunoprecipitated proteins analysed and quantified by mass spectrometry
[2] = molecular target: GFP-tagged PDCoV M protein (porcine deltacoronavirus (PDCoV), strain CZ/2020); test: as above
[3] = molecular target: GFP-tagged PEDV M protein (porcine epidemic diarrhea virus (PEDV), strain AH2012/12); test: affinity purification with mass spectrometry

B1: High mobility group protein B2 (protein, UniProt P17741 1-210)
chain: MGKGDPNKPRGKMSSYAFFVQTCREEHKKKHPDSSVNFAEFSKKCSERWKTMSAKEKSKFEDMAKSDKARYDREMKNYVPPKGDKKGKKKDPNAPKRPPSAFFLFCSEHRPKIKSEHPGLSIGDTAKKLGEMWSEQSAKDKQPYEQKAAKLKEKYEKDIAAYRAKGKGEAGKKGPGRPTGSKKKNEPEDEEEEEEEEEDEDEEEEDEDEE
B1 was tested, and the binding [1] was “binds”.

B2: Phosphoglycerate kinase 1 (protein, UniProt Q7SIB7 1-417)
chain: MSLSNKLTLDKLDVKGKRVVMRVDFNVPMKNNQITNNQRIKAAIPSIKFCLDNGAKSVVLMSHLGRPDGIPMPDKYSLEPVAVELKSLPGKDVLFLKDCVGPEVEKACADPAAGSVILLENLRFHVEEEGKGKDASGSKVKADPAKIEAFRASLSKLGDVYVNDAFGTAHRAHSSMVGVNLPKKAGGFLMKKELNYFAKALESPERPFLAILGGAKVADKIQLINNMLDKVNEMIIGGGMAFTFLKVLNNMEIGTSLFDEEGSKIVKDLMSKAEKNGVKITLPVDFVTADKFDENAKIGQATVASGIPAGWMGLDCGPESSKKYSEAVARAKQIVWNGPVGVFEWEAFAQGTKALMDEVVKATSRGCITIIGGGDTATCCAKWNTEDKVSHVSTGGGASLELLEGKVLPGVDALSNV
With B2 the binding [2] was “binds”.

B3: Aldehyde dehydrogenase 1 family member A1 (protein, UniProt I3LRS5 1-501)
chain: MSSSAMPDIPVPLTNLKFQYTKIFINNEWHNSVSGKKFPVFNPATEEKLCEVEEGDKEDVDKAVKAARQAFQIGSPWRTMDASERGQLINKLADLIERDRLLLATMESMNGGKLFSNAYLMDLGGCIRTLRYCAGWADKIHGRTIPMDGNFFTYTRSEPIGVCGQIIPWNFPLVMLIWKIGPALSCGNTVVVKPAEQTPLTALHVASLIKEAGFPPGVVNIVPGYGPTAGAAISSHMDVDKVAFTGSTQVGKMIKEAAGKSNLKRVTLELGGKSPCIVFADADLDAAVEFAHHGLFYHQGQCCIAASRLFVEESIYNEFVRKSVERAKKYVLGNPLTPGVNQGPQIDKEQYEKILDLIESGKKEGAKLECGGGPWGNKGYFIQPTVFSNVTDEMRIAKEEIFGPVQQIMKFKSLDDVIKRANNTLYGLSAGIFTKDIDKAITVSSALQSGTVWVNCYGVLSAHCPFGGFKMSGNGRELGEYGLHEYTEIKTVTIKISQKNS
B3 was tested, and the binding [3] was “binds”.

B4: T-complex protein 1 subunit gamma (protein, UniProt Q29068 1-82)
chain: NAAKTIADIIRTCLGPKSMMKMLLDPMGGIVMTNDGNAILREIQVQHPAAKSMIEISRTQDEEVGDGTTSVIILAGEMLSVA
For B4, the binding [2] was “binds”.

B5: Junction plakoglobin (protein, UniProt Q8WNW3 1-745)
chain: MEVMNLIEQPIKVTEWQQTYTYDSGIHSGANTCVPSVSSKGLMEEDEACGRQYTLKKTTTYTQAVPQSQGDLEYQMSTTARAKRVREAMCPGVTGEDSSLLLATQVEGQTTNLQRLAEPSQLLKSAIVHLINYQDDAELATRALPELTKLLNDEDPVVVTKAAMIVNQLSKKEASRRALMGSPQLVAAVVRTMQNTSDLDTARCTTSILHNLSHHREGLLAIFKSGGIPALVRMLSSPVESVLFYAITTLHNLLLYQEGAKMAVRLADGLQKMVPLLNKNNPKFLAITTDCLQLLAYGNQESKLIILANGGPQALVQIMRNYSYEKLLWTTSRVLKVLSVCPSNKPAIVEAGGMQALGKHLTSNSPRLVQNCLWTLRNLSDVATKQEGLESVLKILVNQLSVDDVNVLTCATGTLSNLTCNNSKNKTLVTQNSGVEALIHAILRAGDKDDITEPAVCALRHLTSRHPEAEMAQNSVRLNYGIPAIVKLLNQPNQWPLVKATIGLIRNLALCPANHAPLQEASVIPRLVQLLVKAHQDAQRHVAAGTQQPYTDGVRMEEIVEGCTGALHILARDPMNRMEIFRLNTIPLFVQLLYSSVENIQRVAAGVLCELAQDKEAADAIDAEGASSPLMELLHSRNEGTATYAAAVLFRISEDKNPDYRKRVSVELTNSLFKHDPAAWEAAQSMIPINEPYADDMDATYRPMYSSDVPLDPLEMHMDMDGDYPMDTYSDGLRPPYPAADHMLA
In the case of B5, the binding [1] is reported as “binds”.

B6: Opioid growth factor receptor (protein, UniProt A0A8W4FNH8 1-689)
chain: MEDPDCDSTWEDDEEEDGEGPFSRAYEGGEARRTPSLNPQKGFHVRSPGRQHVSDCPDCRFSLALQDLVEPDGNGDMPNLSFYKNEMAFLPNGCFIEDLLKNWKEDYDLLEDNHTYIQWLFPLREPGVNWHAKPLTLQEVEAFKSSPEVKERLVRAYELMLGFYGIQLKDRKTGRVCRAQNYQKRFQNLNWHSHNNLRITRMLKSLGELGLEHFQVPLTRFFLEETLVRRELPGVRQSALDYFVFTVRCRHQRRELLYFAWEHFRPRCRFVWAPLEKLQKFRPCSPPCSPRTGPRWAAKREKGPQDPVLEASAPGQTCGPGRGEEGDREDPGDEAGGEQGPASPNPKESKKRKLEASLRERAPGEPGPSALEVEKIALNLEGCALSQGGLGDGPPEAGSWAPGEAAQPCPQPPGTKVADEVRKRRKVDQGARDGAGVAATRPPAPSGCPEAKEGQSEIKEEADGQAEPEQGAPRSPAAAAETRARGNPRGRENPRGSRGNPLRRRGNPRGSRGNPLRRRGNLQGRGNPPRGRKNPWGRGNPPRRRGNPPWGRGNPPRGRENPWGRGNPLRGRENLSGRGNPPRRRGNPPRRSWWTGGRRPQGRSLAVNPGRLKGWDAGCLGLRPGPRRWLFSVPSSAGLALVVSGHCSGHYSCREDRPHPQRRPRTAEPLPRPRLLASPSSRPSLASSL
B6 was tested, and the binding [3] was “binds”.

B7: Mediator of ErbB2-driven cell motility (protein, UniProt F2Z5F8 1-297)
chain: MSNRVVCREASHAGSWYTASGPQLNAQLEGWLSQVQSTKRPARAIIAPHAGYTYCGSCAAHAYKQVDPSITRRIFILGPSHHVPLSRCALSSVDIYRTPLYDLRIDQKIYGELWKTGMFERMSLQTDEDEHSIEMHLPYTAKAMESHKDEFTIIPVLVGALSESKEQEFGKLFSKYLADPSNLFVVSSDFCHWGQRFRYSYYDESQGEIYRSIEHLDKMGMSIIEQLDPVSFSNYLKKYHNTICGRHPIGVLLNAITELQKNGMNMSFSFLNYAQSSQCRNWQDSSVSYAAGALTVH
With B7 the binding [1] was “binds”.
